Literature values, collected in US10314326B2, “Composition for reducing food intake” (Natures Remedies Ltd, priority 2009, dated 2019).
Some of these results come from one statement about several compounds together. At least one compound was matched to its structure with a doubt left.

Details: pharmacological options, literature

| Compound | reduction in food/calorie intake |
| --- | --- |
| CCN[C@@H](C)Cc1cccc(C(F)(F)F)c1 [d-fenfluramine] | 17-22% |
| CCNC(C)Cc1cccc(C(F)(F)F)c1 (centres unmarked) [fenfluramine] | 17-22% |
